No constants are given. Whether binding was seen depends on the method and setting. In cells and extracts the contact can be indirect. These calls come from enrichment with a bait or labelling near it, and not all partners need be listed.
Target: SARS-CoV-2 NSP5, SFB- or BioID2-tagged (SARS-CoV-2) (UniProt P0DTD1)
Experiment: affinity purification with mass spectrometry + proximity labelling

B1: OAS3 (protein, UniProt Q9Y6K5 1-1087)
chain: MDLYSTPAAALDRFVARRLQPRKEFVEKARRALGALAAALRERGGRLGAAAPRVLKTVKGGSSGRGTALKGGCDSELVIFLDCFKSYVDQRARRAEILSEMRASLESWWQNPVPGLRLTFPEQSVPGALQFRLTSVDLEDWMDVSLVPAFNVLGQAGSGVKPKPQVYSTLLNSGCQGGEHAACFTELRRNFVNIRPAKLKNLILLVKHWYHQVCLQGLWKETLPPVYALELLTIFAWEQGCKKDAFSLAEGLRTVLGLIQQHQHLCVFWTVNYGFEDPAVGQFLQRQLKRPRPVILDPADPTWDLGNGAAWHWDLLAQEAASCYDHPCFLRGMGDPVQSWKGPGLPRAGCSGLGHPIQLDPNQKTPENSKSLNAVYPRAGSKPPSCPAPGPTGAASIVPSVPGMALDLSQIPTKELDRFIQDHLKPSPQFQEQVKKAIDIILRCLHENCVHKASRVSKGGSFGRGTDLRDGCDVELIIFLNCFTDYKDQGPRRAEILDEMRAQLESWWQDQVPSLSLQFPEQNVPEALQFQLVSTALKSWTDVSLLPAFDAVGQLSSGTKPNPQVYSRLLTSGCQEGEHKACFAELRRNFMNIRPVKLKNLILLVKHWYRQVAAQNKGKGPAPASLPPAYALELLTIFAWEQGCRQDCFNMAQGFRTVLGLVQQHQQLCVYWTVNYSTEDPAMRMHLLGQLRKPRPLVLDPADPTWNVGHGSWELLAQEAAALGMQACFLSRDGTSVQPWDVMPALLYQTPAGDLDKFISEFLQPNRQFLAQVNKAVDTICSFLKENCFRNSPIKVIKVVKGGSSAKGTALRGRSDADLVVFLSCFSQFTEQGNKRAEIISEIRAQLEACQQERQFEVKFEVSKWENPRVLSFSLTSQTMLDQSVDFDVLPAFDALGQLVSGSRPSSQVYVDLIHSYSNAGEYSTCFTELQRDFIISRPTKLKSLIRLVKHWYQQCTKISKGRGSLPPQHGLELLTVYAWEQGGKDSQFNMAEGFRTVLELVTQYRQLCIYWTINYNAKDKTVGDFLKQQLQKPRPIILDPADPTGNLGHNARWDLLAKEAAACTSALCCMGRNGIPIQPWPVKAAV
- binding: binds

Source: publication doi:10.1101/2020.12.31.424961
